Measurements from PubChem BioAssay AID504467 (National Center for Advancing Translational Sciences (NCATS), 2011).
In all, about 330,000 compounds went through this assay and about 7,700 (2.3%) were called active. Inconclusive results, whose numbers are uncertain, are shown with a selection of clear calls. Calls follow the shape of the dose curve; as a rule, active = well fitted inhibition curve with a large enough effect; inconclusive = small, poorly fitted or top-dose-only effect, or effect the other way; inactive = flat fitted curve, though single readings scatter. Where the call is inconclusive, the potency comes from a doubtful curve fit.

assay: qHTS screen for small molecules that inhibit ELG1-dependent DNA repair in human embryonic kidney (HEK293T) cells expressing luciferase-tagged ELG1; conditions: HEK293T ELG1-luciferase reporter, luminescence, 16 h, DNA damage induced by 5-fluorouridine; series mostly up to 46.1 µM; also: nearly all actives have a fitted effect of over 55% in size
How it was run: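 Overnight (16 hr) co-exposure of 2,000 cells/well to 5-fluorouridine and compound at 37 °C preceded detection. Luciferase was quantified via ONE-Glo luminescence; loss of signal denotes inhibition.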
Potency is read from the fitted curve at half-maximal effect.

Row | Structure (SMILES) | Potency
1 | CCn1cc(C(=O)N2CCCC2)c(=O)c2cc(S(=O)(=O)N3CCOCC3)ccc21 | inactive
2 | COCc1c(C#N)c(NCc2cc(OC)c(OC)c(OC)c2)nc(C)c1[N+](=O)[O-] | active: 16.4 µM
3 | COC(=O)c1cc(NC(=O)/C=C/c2ccc3c(c2)OCO3)cc(C(=O)OC)c1 | inconclusive: 10.3 µM [inhibitor, partial curve]
4 | COc1ccccc1-c1nc(-c2ccc(C)nc2OC)no1 | inconclusive: 3.66 µM [activator, full curve]
5 | O=C(Cc1cccc2ccccc12)Nc1ccc(OC(F)F)c(Cl)c1 | inconclusive: 29.1 µM [inhibitor, single point]
6 | COc1cccc(-c2nc(N3CCCC3)c3ccccc3n2)c1O | inconclusive: 29.1 µM [inhibitor, single point]
7 | COCCN(C(=O)CCC(=O)Nc1nccs1)C(C(=O)NCCC(C)C)c1ccc(OC)cc1 (stereo not drawn) | inactive
8 | Cc1nc2ccccn2c1C(=O)NNC(=S)Nc1ccc(Cl)cc1 | inactive
9 | O=C1CCN(C(=O)/C=C/c2ccccc2)c2ccccc21 | inconclusive: 32.6 µM [activator, single point]
10 | C/C=C(\C)C(=O)N1CC2(CC(c3cccc(NC(=O)CC(c4ccccc4)c4ccccc4)c3)=NO2)C[C@H]1C(N)=O (stereo partly drawn) | inconclusive: 29.1 µM [inhibitor, single point]
11 | O=C1Nc2ccc(Br)cc2C1=C1CCCCC1 | inconclusive: 35.5 µM [inhibitor, single point]
12 | CCn1c(SCC(=O)Nc2ccccc2-c2ccccc2)nnc1-c1ccoc1C | inconclusive: 35.5 µM [inhibitor, single point]
13 | O=C(c1cccs1)N1CCC(Cc2ccccc2)CC1 | inactive
14 | O=C(Nc1ccc(S(=O)(=O)N2CCCCC2c2cccnc2)cc1)c1c(F)cccc1F (stereo not drawn) | inconclusive: 23.1 µM [inhibitor, single point]
15 | COc1ccccc1N1CCN(C(=O)Cn2nnc(-c3ccncc3)n2)CC1 | inactive
16 | C[C@H](NC(=O)c1cc2c(cn1)[nH]c1ccccc12)C(=O)O | inactive
17 | CCC1CCCCN1C(=O)COC(=O)c1cc(C)nc2ccccc12 (stereo not drawn) | inconclusive: 25.9 µM [inhibitor, single point]
18 | COc1ccc(/C=N\NC(=O)c2ccc(F)cc2)cc1COc1ccccc1C(N)=O | inactive
19 | CN(C(=O)c1cc2nc(-c3ccco3)cc(C(F)(F)F)n2n1)C1CCCCC1 | inconclusive: 16.4 µM [inhibitor, partial curve, poor fit]
20 | COc1ccc(-c2cc3nnc(-c4ccccc4)nc3s2)cc1 | inconclusive: 0.231 µM [activator, full curve]
21 | Cc1ccccc1OCCC(=O)Nc1ccc(S(=O)(=O)N(C)C2CCN(C)CC2)cc1 | inconclusive: 6.51 µM [inhibitor, single point]
22 | CC(Sc1nnc2c(n1)[nH]c1ccccc12)C(=O)NC1CCCCC1 (stereo not drawn) | inconclusive: 16.4 µM [inhibitor, single point]

Quoted at random: two entries already listed, in no set order.
Row | Structure (SMILES) | Potency
7 | COCCN(C(=O)CCC(=O)Nc1nccs1)C(C(=O)NCCC(C)C)c1ccc(OC)cc1 (stereo not drawn) | inactive
14 | O=C(Nc1ccc(S(=O)(=O)N2CCCCC2c2cccnc2)cc1)c1c(F)cccc1F (stereo not drawn) | inconclusive: 23.1 µM [inhibitor, single point]

(listing goes on)

Row | Structure (SMILES) | Potency
23 | CN1CCN(c2nc(-c3cccnc3)nc3ccccc23)CC1 | inconclusive: 18.4 µM [inhibitor, partial curve, poor fit]
24 | O=C(Nc1ccc(F)cc1)c1ccc(CSc2ccccc2)o1 | inconclusive: 29.1 µM [activator, single point]
25 | CCOC(=O)C(/C(C)=N/NC(=O)C1CC1c1ccccc1)C(C)C (stereo not drawn) | inactive
26 | COc1ccc(NC(=O)CN(C)C(C)C(=O)N2CCCCC2)cc1 (stereo not drawn) | inactive
27 | N#Cc1cc2cc3c(cc2nc1SCC(=O)N1CCOCC1)OCCO3 | inconclusive: 0.82 µM [activator, partial curve]
28 | CCOC(=O)C1(CCOc2ccccc2)CCN(Cc2cc(OC)c(O)cc2Cl)CC1 | inconclusive: 14.6 µM [inhibitor, partial curve, poor fit]
29 | CCC(C)(C)C1CCc2c(sc(NC(=O)c3ccccc3C(=O)O)c2C#N)C1 (stereo not drawn) | inconclusive: 29.1 µM [inhibitor, single point]
30 | O=C(C[C@@H]1C/C=C/CCCC(=O)O[C@H](c2ccccc2)CNC1=O)NCCO | inconclusive: 18.3 µM [activator, partial curve, poor fit]
31 | CCn1c(C)cc(C=C2C(=O)c3ccccc3C2=O)c1C | inconclusive: 6.51 µM [activator, partial curve]
32 | OCC1CCCN(Cc2ccc(-c3ccccc3)cc2)C1 (stereo not drawn) | inconclusive: 18.4 µM [activator, partial curve, poor fit]
33 | Cc1cccc(-c2nn(-c3ccccc3)cc2C(=O)NCC(c2cccs2)N2CCOCC2)c1 (stereo not drawn) | inconclusive: 29.1 µM [inhibitor, single point]
34 | CCOC(=O)[C@H]1[C@H]2COc3ccc(Cl)cc3[C@@H]2N2C(=O)c3cc(OC)ccc3NC(=O)[C@@]12C | inactive
35 | Cc1nn2cc(-c3ccc(Cl)cc3)cnc2c1Cl | inconclusive: 6.51 µM [activator, partial curve]
36 | O=C(NC1CCCCCCC1)c1ccc(CNc2c(N3CCOCC3)c(=O)c2=O)cc1 | inconclusive: 14.6 µM [activator, partial curve]
37 | CC(C)(C)c1ccc(C(=O)NCc2ccc(Cl)cc2)cc1 | inconclusive: 9.2 µM [activator, partial curve, poor fit]
38 | CSc1nc2c(c(=O)[nH]c(=O)n2C)n1Cc1ccccc1Cl | inconclusive: 25.9 µM [activator, partial curve, poor fit]
39 | Cc1nnc(NC(=O)C2CC(=O)N(Cc3ccccc3)C2)s1 (stereo not drawn) | inconclusive: 18.3 µM [activator, single point]
40 | O/N=C/c1ccc(OCc2ccccc2)c(Cl)c1 | inconclusive: 8.2 µM [activator, partial curve]
41 | CCCn1c(O)c(N=N)c2ccccc21 | inactive
42 | COc1ccc(Nc2ncnc3sccc23)cc1 | inconclusive: 8.2 µM [activator, partial curve]
43 | Cc1ccc(-c2csc3nc(SCC(N)=O)n(Cc4ccccc4)c(=O)c23)cc1 | active: 23.1 µM
